Assay results published in paper PMC9483092.
No constants are given. Whether binding was seen depends on the method and setting. Binding seen in cells or lysates may run through a third protein. A yes stands for co-enrichment or nearness to the bait. Other partners may have been found.

Chains of the proteins cited; added tags and fusions are not shown.
UniProt Q9BYE2: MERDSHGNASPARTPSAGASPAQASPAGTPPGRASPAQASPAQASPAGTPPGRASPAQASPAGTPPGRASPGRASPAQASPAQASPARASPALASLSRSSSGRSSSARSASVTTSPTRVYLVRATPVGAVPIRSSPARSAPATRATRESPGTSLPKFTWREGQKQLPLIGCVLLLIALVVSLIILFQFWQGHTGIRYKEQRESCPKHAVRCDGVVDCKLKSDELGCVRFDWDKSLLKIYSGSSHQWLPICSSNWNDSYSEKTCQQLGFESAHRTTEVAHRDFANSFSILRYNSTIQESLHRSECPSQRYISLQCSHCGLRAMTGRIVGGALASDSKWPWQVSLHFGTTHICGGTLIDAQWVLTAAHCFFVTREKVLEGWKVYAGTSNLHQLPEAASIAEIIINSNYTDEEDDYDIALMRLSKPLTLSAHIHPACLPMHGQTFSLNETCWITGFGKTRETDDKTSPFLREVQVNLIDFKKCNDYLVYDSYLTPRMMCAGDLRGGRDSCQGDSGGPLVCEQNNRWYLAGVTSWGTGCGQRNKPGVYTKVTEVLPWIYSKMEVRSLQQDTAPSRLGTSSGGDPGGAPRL

Biological target: T1, recombinant human IL4I1 (interleukin four-induced gene 1), conjugated to TriCEPS (human) (UniProt Q96RQ9)
T1 sequence (chain, conjugated to LRC-TriCEPS-biotin (LRC-TriCEPS V.3)): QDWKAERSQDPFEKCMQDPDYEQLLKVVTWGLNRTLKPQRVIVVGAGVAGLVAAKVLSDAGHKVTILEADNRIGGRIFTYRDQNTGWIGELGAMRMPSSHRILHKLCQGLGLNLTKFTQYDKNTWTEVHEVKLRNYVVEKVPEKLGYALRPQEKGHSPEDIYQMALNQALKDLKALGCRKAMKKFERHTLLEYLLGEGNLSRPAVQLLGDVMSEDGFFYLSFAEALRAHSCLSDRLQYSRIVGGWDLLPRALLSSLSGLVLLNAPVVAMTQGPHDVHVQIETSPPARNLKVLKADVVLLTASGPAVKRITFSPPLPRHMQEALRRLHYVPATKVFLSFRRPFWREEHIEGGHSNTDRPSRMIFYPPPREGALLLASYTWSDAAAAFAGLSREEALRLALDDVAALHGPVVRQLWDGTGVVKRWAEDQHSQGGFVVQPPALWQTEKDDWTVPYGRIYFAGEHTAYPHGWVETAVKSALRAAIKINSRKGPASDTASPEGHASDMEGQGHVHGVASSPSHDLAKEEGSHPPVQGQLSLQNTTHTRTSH
Test: affinity purification with mass spectrometry; ligand receptor capture (LRC-TriCEPS): Jurkat cells oxidised with 1.5 mM sodium metaperiodate at 4°C, incubated 90 min with TriCEPS-rhIL4I1 (control TriCEPS-transferrin), cross-linked to the cell surface, lysed, LC-MS; only the target purified

binding: binds
Substance: TMPRSS13 endogenous on Jurkat cells (from UniProt Q9BYE2 1-586) (enzyme)
